Source: PubChem BioAssay AID493246 (Drosophila RNAi Screening Center, 2011)

Aim: 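Identify essential fly genes by loss of cell viability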 (primary screen)
Cells: Drosophila Kc and S2R+ cells
Reagent: long dsRNA against Drosophila genes
Measurement: 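Cell number per well after knock-down, printed as raw plate values; calls were based on per-plate z-scores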
Scale: Kc cell number and S2R+ cell number: higher = more cells remaining
Rule for the call: 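Active when the per-plate z-score of cell number is 3 or more in the direction of fewer cells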
The deposit covers about 21,000 reagents; this is an unselected part of those that have a named target and a result. Over the whole deposit, 429 (2%) got an active call. 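Values are raw and not normalised between plates; calls rest on per-plate z-scores that were not deposited.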 Reagents against one gene are numbered here. Names joined by + are all predicted targets of the reagent. Not stated in the record: the amount of reagent, the time to read-out.

target | reagent no. | Kc cell number, rep 1 | Kc cell number, rep 2 | S2R+ cell number, rep 1 | S2R+ cell number, rep 2 | activity call
chm | 1 | 1.33e6 | 1.36e6 | 7.02e5 | 6.97e5 | inactive
CG18745 | 1 | 1.53e6 | 1.61e6 | 1.29e6 | 1.44e6 | inactive
CG10589 | 1 | 1.66e6 | 1.66e6 | 1.43e6 | 1.51e6 | inactive
CG13073 | 1 | 1.36e6 | 1.59e6 | 1.32e6 | 1.38e6 | inactive
ICA69 | 1 | 1.57e6 | 1.60e6 | 1.45e6 | 1.47e6 | inactive
CG7168 | 1 | 1.60e6 | 1.59e6 | 1.33e6 | 1.34e6 | inactive
CG3544 | 1 | 1.29e6 | 1.29e6 | 8.90e5 | 1.00e6 | inactive
CG7139 | 1 | 1.48e6 | 1.53e6 | 1.18e6 | 1.27e6 | inactive
kek3 | 1 | 1.24e6 | 1.28e6 | 1.05e6 | 1.13e6 | inactive
vnc + CG42455 | 1 | 1.12e6 | 1.37e6 | 1.17e6 | 8.76e5 | inactive
lncRNA:CR32368 | 1 | 1.65e6 | 1.71e6 | 1.19e6 | 1.34e6 | inactive
CG13331 | 1 | 1.66e6 | 1.71e6 | 1.46e6 | 1.55e6 | inactive
CG1979 | 1 | 1.58e6 | 1.66e6 | 1.39e6 | 1.46e6 | inactive
CG3610 | 1 | 1.27e6 | 1.37e6 | 1.18e6 | 1.28e6 | inactive
CG8141 | 1 | 1.31e6 | 1.33e6 | 1.08e6 | 1.18e6 | inactive
CG8204 | 1 | 1.71e6 | 1.70e6 | 1.34e6 | 1.53e6 | inactive
CG34451 | 1 | 1.31e6 | 1.38e6 | 1.08e6 | 1.33e6 | inactive
CG34451 | 2 | 1.45e6 | 1.50e6 | 1.14e6 | 1.32e6 | inactive
CG18476 | 1 | 1.50e6 | 1.60e6 | 1.25e6 | 1.29e6 | inactive
Gr66a | 1 | 1.58e6 | 1.44e6 | 1.15e6 | 1.26e6 | inactive
EMC8-9 | 1 | 1.24e6 | 1.26e6 | 1.12e6 | 1.17e6 | inactive
CG42735 (retired record) | 1 | 1.52e6 | 1.54e6 | 1.07e6 | 1.18e6 | inactive
Obsc | 1 | 1.36e6 | 1.52e6 | 1.08e6 | 1.03e6 | inactive
Obsc | 2 | 1.74e6 | 1.82e6 | 1.44e6 | 1.52e6 | inactive
Obsc | 3 | 1.47e6 | 1.56e6 | 1.22e6 | 1.33e6 | inactive

Laid out differently: entries from further up
vnc + CG42455
- Kc cell number, rep 1: 1.12e6
- Kc cell number, rep 2: 1.37e6
- S2R+ cell number, rep 1: 1.17e6
- S2R+ cell number, rep 2: 8.76e5
- activity call: inactive

lncRNA:CR32368
- Kc cell number, rep 1: 1.65e6
- Kc cell number, rep 2: 1.71e6
- S2R+ cell number, rep 1: 1.19e6
- S2R+ cell number, rep 2: 1.34e6
- activity call: inactive
